Data reported in patent US9595012B2, “Method for improving the environmental impact of formulated products” (Johnson & Johnson Consumer Inc., priority 2010, dated 2017).

Test: Environmental performance scoring (persistence, bioaccumulation, final score)
Conditions: scale 0-100; for Persistence score: inorganic ingredient, half-life in water, sediment and soil from peer-reviewed literature, Table 1 and Table 3

SMILES	Bioaccumulation score	Final Score (environmental performance score) (PBT score minus penalties, P 75%, T 25% weight)	Persistence score
OCC(O)CO [Glycerin]	100	100	–
[Zn+2] [Zn^2+]	–	–	zero
[O]=[Zn] [zinc oxide]	100	–	zero
